{
  "source": "patent US8518924B2",
  "about": "“Agent for inhibiting visceral fat accumulation” (Morinaga Milk Industry Co., Ltd., priority 2005, dated 2013)",
  "test": "Effect on amount of food consumption and increase in body weight of ZDF rats",
  "format": "in vivo, rat",
  "settings": "10 μg/ml solution; for Amount of food consumption compared with negative sample group (in words) / Amount of increased body weight compared with negative sample group (in words): oral once a day; for Amount of increased body weight compared with negative sample group (in words): 42 days; for Increased body weight: during 42 days per rat; for Increased body weight / Amount of food consumption: oral 1 ml per 400 g body weight once a day; for Amount of food consumption: per day per rat, average of about weekly measurements",
  "note": "Some compounds share one wording; it may come from a single statement.",
  "data": [
    {"smiles": "CC(C)CCCC(C)C1CCC2C3=CCC4C(C)C(O)CCC4(C)C3CCC21C", "note": "(stereo not drawn) [Compound 3, 4-methylcholest-7-en-3-ol]", "values": [
      {"measurement": "Amount of food consumption compared with negative sample group (in words)", "value": "did not show significant increase or decrease in amount of food consumption"},
      {"measurement": "Amount of increased body weight compared with negative sample group (in words)", "value": "almost the same as that of the group administered with the negative sample"},
      {"measurement": "Increased body weight", "value": "137.7 ± 10.8", "unit": "g"},
      {"measurement": "Amount of food consumption", "value": "21.7 ± 2.0", "unit": "g"}
    ]},
    {"smiles": "CC(C)C(C)CCC(C)C1CCC2C3=CCC4C(C)C(O)CCC4(C)C3CCC21C", "note": "(stereo not drawn) [Compound 4, 4-methylergost-7-en-3-ol]", "values": [
      {"measurement": "Amount of food consumption compared with negative sample group (in words)", "value": "did not show significant increase or decrease in amount of food consumption"},
      {"measurement": "Amount of increased body weight compared with negative sample group (in words)", "value": "almost the same as that of the group administered with the negative sample"},
      {"measurement": "Increased body weight", "value": "128.7 ± 14.5", "unit": "g"},
      {"measurement": "Amount of food consumption", "value": "21.7 ± 2.2", "unit": "g"}
    ]},
    {"smiles": "CCC(CCC(C)C1CCC2C3=CCC4C(C)C(O)CCC4(C)C3CCC21C)C(C)C", "note": "(stereo not drawn) [Compound 5, 4-methylstigmast-7-en-3-ol]", "values": [
      {"measurement": "Amount of food consumption compared with negative sample group (in words)", "value": "did not show significant increase or decrease in amount of food consumption"},
      {"measurement": "Amount of increased body weight compared with negative sample group (in words)", "value": "almost the same as that of the group administered with the negative sample"},
      {"measurement": "Increased body weight", "value": "152.7 ± 28.1", "unit": "g"},
      {"measurement": "Amount of food consumption", "value": "21.4 ± 1.3", "unit": "g"}
    ]}
  ]
}
